Reference: PubChem BioAssay AID602196 (INSERM, 2012)
Shown is one part, drawn at random, of about 23,000 reagents. 455 of them (2%) were called active. 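Active includes both protection and sensitisation; some change values fall well beyond the stated -50 to +50 range.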 Further read-outs or replicates are left out here. Not stated in the record: the amount of reagent.

- Test: 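Genes whose knock-down alters cisplatin killing of lung cancer cells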
- System: human A549 lung cancer cells
- Reagent: siRNA pair against human genes
- Timing: 48 h transfection before cisplatin; time from cisplatin to read-out not stated
- Challenge: cisplatin at a dose killing half of control-siRNA cells; exact dose and duration not given
- Detection: 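Shift in cisplatin death relative to control siRNA, from -50 (all cells die) to +50 (no cells die); siRNAs harmful on their own scored 0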
- Reading the numbers: two-siRNA summed score (-2 to +2): higher = both siRNAs protect from cisplatin killing; -2 means both sensitise; mean protection from cisplatin (shift in death) and protection from cisplatin (shift in death), siRNA C: higher = protection from cisplatin killing
- Hit rule: 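siRNAs harmful alone (LDH or WST-1) get 0; others get +1 for less and -1 for more cisplatin killing; genes are active when the two siRNAs give the same sign, summing to ±2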
- Calls: active = both siRNAs shift cisplatin killing the same way; inactive = no consistent shift, or siRNA harmful alone

| Gene | two-siRNA summed score (-2 to +2) | mean protection from cisplatin (shift in death) (%) | protection from cisplatin (shift in death), siRNA C (%) | outcome |
| --- | --- | --- | --- | --- |
| ARFGAP1 | 0 | 6.2 | 13.8 | inactive |
| IGFL3 | 1 | 15.4 | 20 | inactive |
| ERGIC2 | 0 | -2.4 | -5.7 | inactive |
| NSD3 | 1 | 9.8 | -6.3 | inactive |
| RUNX1 | 0 | -9.1 | -13.4 | inactive |
| LOC401112 | 0 | 6.4 | 6.1 | inactive |
| SUSD3 | 1 | 12.8 | 5.1 | inactive |
| LOC391711 | 1 | 18.8 | 19.1 | inactive |
| TSNAXIP1 | 0 | -2 | 9.7 | inactive |
| MPC1L | -1 | -2.1 | 13.3 | inactive |
| ZNF827 | 0 | -1.2 | 3.6 | inactive |
| LOC400682 | 0 | 3.4 | 1.7 | inactive |
| BOLL | 0 | 5.3 | 7.5 | inactive |
| SLC22A24 | 0 | -4.3 | -9.7 | inactive |
| TMEM97 | 0 | 3.5 | 4.1 | inactive |
| LOC392262 | 0 | 0.8 | -4 | inactive |
| CRP | -1 | -14.1 | -10.5 | inactive |
| ADCK1 | 0 | 4.5 | 5.5 | inactive |
| KCNJ9 | 0 | 4.8 | 2 | inactive |
| LRATD1 | 0 | -15.1 | -15.9 | inactive |
| FOXD4 | 1 | 35.3 | 40.5 | inactive |
| RPL39 | 0 | 36.3 | 31.7 | inactive |
| LDAH | 0 | 3.3 | 0.4 | inactive |

A portion from the list above, for reference:
| Gene | two-siRNA summed score (-2 to +2) | mean protection from cisplatin (shift in death) (%) | protection from cisplatin (shift in death), siRNA C (%) | outcome |
| --- | --- | --- | --- | --- |
| LOC391711 | 1 | 18.8 | 19.1 | inactive |
| TSNAXIP1 | 0 | -2 | 9.7 | inactive |
| MPC1L | -1 | -2.1 | 13.3 | inactive |
